No constants are given. Whether binding was seen depends on the method and setting. Some results given as binding are weak or reduced against the parent protein; the word gives no strength. For some of these results: Tags and fused reporters may be left off the sequences shown.
What was measured:
[1] = target: T1, LAG-3-huIgG1 Fc fusion protein (human) (UniProt P18627); test: flow cytometry: blocking of LAG-3-huIgG1 Fc binding to Daudi cells
T1 sequence (looked up): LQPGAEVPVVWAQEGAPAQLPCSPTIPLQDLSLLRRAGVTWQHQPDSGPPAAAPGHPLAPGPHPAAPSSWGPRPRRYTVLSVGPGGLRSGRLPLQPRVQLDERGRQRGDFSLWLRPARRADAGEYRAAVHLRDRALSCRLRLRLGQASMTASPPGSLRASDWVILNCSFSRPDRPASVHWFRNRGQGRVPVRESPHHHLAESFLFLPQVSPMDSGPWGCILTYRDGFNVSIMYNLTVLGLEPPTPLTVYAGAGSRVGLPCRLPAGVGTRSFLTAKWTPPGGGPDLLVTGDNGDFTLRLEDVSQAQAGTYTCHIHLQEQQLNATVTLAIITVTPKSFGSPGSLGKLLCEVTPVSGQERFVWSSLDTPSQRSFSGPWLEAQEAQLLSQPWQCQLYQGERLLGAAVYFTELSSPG

[2] = target: T1, LAG-3-huIgG1 Fc fusion protein (human); test: blocking FACS: serial dilutions of mAb with LAG-3-huIgG1 Fc at a constant 2 µg/mL on Daudi cells, 4 C, 30 min; bound LAG-3-Ig detected with PE anti-human IgG F(ab')2; blocked ligand: MHC class II on Daudi cells
[3] = target: T2, human LAG-3 expressed on cells (human) (UniProt P18627); test: FACS competition on LAG-3-expressing CHO cells; competitor: FITC-labeled BAP050
T2 sequence (looked up): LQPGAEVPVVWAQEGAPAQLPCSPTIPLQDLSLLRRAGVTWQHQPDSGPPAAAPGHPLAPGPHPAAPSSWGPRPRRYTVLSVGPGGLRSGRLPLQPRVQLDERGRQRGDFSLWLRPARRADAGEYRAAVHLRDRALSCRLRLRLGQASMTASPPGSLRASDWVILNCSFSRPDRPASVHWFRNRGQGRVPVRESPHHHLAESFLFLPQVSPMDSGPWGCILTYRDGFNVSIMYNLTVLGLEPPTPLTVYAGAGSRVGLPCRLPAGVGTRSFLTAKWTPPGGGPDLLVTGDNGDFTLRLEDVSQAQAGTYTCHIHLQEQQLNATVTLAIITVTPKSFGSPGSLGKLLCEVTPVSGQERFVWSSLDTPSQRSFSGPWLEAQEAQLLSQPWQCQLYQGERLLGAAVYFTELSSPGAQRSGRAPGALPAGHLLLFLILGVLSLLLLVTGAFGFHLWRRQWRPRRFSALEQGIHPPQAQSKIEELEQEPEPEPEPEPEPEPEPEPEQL

[4] = target: T2, human LAG-3 expressed on cells (human); test: competition FACS on LAG-3-expressing CHO cells: serial dilutions of unlabelled test mAb against a constant concentration of FITC-labelled murine mAb BAP050, 4 C, 30 min; MFI of bound labelled mAb (Experiment 1)
[5] = target: T2, human LAG-3 expressed on cells (human); test: FACS binding of the mAb (CHO culture supernatant) at 200, 100, 50, 25 and 12.5 ng/ml to LAG-3-expressing cells; median fluorescence
[6] = target: T2, human LAG-3 expressed on cells (human); test: competition FACS on LAG-3-expressing CHO cells: serial dilutions of unlabelled test mAb against a constant concentration of FITC-labelled murine mAb BAP050, 4 C, 30 min; MFI of bound labelled mAb (Experiment 2)
[7] = target: T2, human LAG-3 expressed on cells (human); test: FACS binding, FIG. 3
[8] = target: T2, human LAG-3 expressed on cells (human); test: binding test on LAG-3-transfected CHO cells
[9] = target: T3, LAG-3 with partial deletion of D1 extra loop expressed on CHO cells (UniProt P18627); test: binding to transfected CHO cells
T3 sequence (looked up): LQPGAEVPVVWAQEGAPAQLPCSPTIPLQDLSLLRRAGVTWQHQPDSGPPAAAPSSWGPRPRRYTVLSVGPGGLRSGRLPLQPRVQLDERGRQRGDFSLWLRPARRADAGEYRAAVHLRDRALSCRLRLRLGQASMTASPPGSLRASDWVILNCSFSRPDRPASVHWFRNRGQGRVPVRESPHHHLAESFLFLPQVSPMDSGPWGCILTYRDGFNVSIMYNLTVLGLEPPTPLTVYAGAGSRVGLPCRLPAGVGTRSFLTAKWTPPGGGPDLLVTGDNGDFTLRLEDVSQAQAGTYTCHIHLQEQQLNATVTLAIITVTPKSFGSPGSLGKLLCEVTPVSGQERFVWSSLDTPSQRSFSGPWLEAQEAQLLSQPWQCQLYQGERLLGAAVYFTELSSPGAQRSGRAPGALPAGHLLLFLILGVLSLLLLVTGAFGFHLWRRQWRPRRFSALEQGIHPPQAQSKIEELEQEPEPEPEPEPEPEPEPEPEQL

[10] = target: T4, LAG-3 with D2 deletion expressed on CHO cells (UniProt P18627); test: binding to transfected CHO cells
T4 sequence (looked up): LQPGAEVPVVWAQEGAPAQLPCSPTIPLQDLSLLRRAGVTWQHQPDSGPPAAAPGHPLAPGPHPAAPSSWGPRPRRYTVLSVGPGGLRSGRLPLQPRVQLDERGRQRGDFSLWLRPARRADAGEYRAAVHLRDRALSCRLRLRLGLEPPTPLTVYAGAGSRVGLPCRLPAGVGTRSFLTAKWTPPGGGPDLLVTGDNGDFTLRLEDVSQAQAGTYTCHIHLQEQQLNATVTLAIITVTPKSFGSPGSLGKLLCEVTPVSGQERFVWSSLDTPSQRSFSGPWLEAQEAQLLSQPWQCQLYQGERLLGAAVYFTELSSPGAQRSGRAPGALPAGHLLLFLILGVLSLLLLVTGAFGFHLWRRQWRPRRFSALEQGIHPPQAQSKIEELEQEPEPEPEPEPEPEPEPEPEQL

Measured: binding

B1: BAP050-hum02-Ser (antibody, human IgG4 S228P, kappa, V domains shown)
VH: EVQLVQSGAEVKKPGATVKISCKVSGFTLTNYGMNWVRQAPGQGLEWMGWINTDTGEPTYADDFKGRFVFSLDTSVSTAYLQISSLKAEDTAVYYCARNPPYYYGTNNAEAMDYWGQGTTVTVSS
VL: DIQMTQSPSSLSASVGDRVTITCSSSQDISNYLNWYQQKPGKAPKLLIYYTSTLHLGIPPRFSGSGYGTDFTLTINNIESEDAAYYFCQQYYNLPWTFGQGTKVEIKR
binds: [1] | [2]

B2: BAP050-hum13-Ser (antibody, human IgG4 S228P, kappa, V domains shown)
VH: QVQLVQSGAEVKKPGASVKVSCKASGFTLTNYGMNWVRQAPGQGLEWMGWINTDTGEPTYADDFKGRFVFSLDTSVSTAYLQISSLKAEDTAVYYCARNPPYYYGTNNAEAMDYWGQGTTVTVSS
VL: DIQMTQSPSSLSASVGDRVTITCSSSQDISNYLNWYQQKPGKAPKLLIYYTSTLHLGIPPRFSGSGYGTDFTLTINNIESEDAAYYFCQQYYNLPWTFGQGTKVEIKR
binds: [1] | [2]

B3: BAP050-hum10 (antibody, human IgG4 S228P, kappa, V domains shown)
VH: QVQLVQSGAEVKKPGASVKVSCKASGFTLTNYGMNWVRQARGQRLEWIGWINTDTGEPTYADDFKGRFVFSLDTSVSTAYLQICSLKAEDTAVYYCARNPPYYYGTNNAEAMDYWGQGTTVTVSS
VL: EIVLTQSPATLPVTLGQPASISCSSSQDISNYLNWYQQKPGQAPRLLIYYTSTLHLGVPSRFSGSGSGTDFTFTISSLEAEDAATYYCQQYYNLPWTFGQGTKVEIKR
binds: [3] | [4] | [5] | [6] | [7] | [8]

B4: BAP050-hum11-Ser (antibody, human IgG4 S228P, kappa, V domains shown)
VH: QVQLVQSGAEVKKPGASVKVSCKASGFTLTNYGMNWVRQARGQRLEWIGWINTDTGEPTYADDFKGRFVFSLDTSVSTAYLQISSLKAEDTAVYYCARNPPYYYGTNNAEAMDYWGQGTTVTVSS
VL: DIQMTQSPSSLSASVGDRVTITCSSSQDISNYLNWYLQKPGQSPQLLIYYTSTLHLGVPSRFSGSGSGTEFTLTISSLQPDDFATYYCQQYYNLPWTFGQGTKVEIKR
binds: [1] | [2]

B5: BAP050-hum09-Ser (antibody, human IgG4 S228P, kappa, V domains shown)
VH: QVQLVQSGAEVKKPGASVKVSCKASGFTLTNYGMNWVRQARGQRLEWIGWINTDTGEPTYADDFKGRFVFSLDTSVSTAYLQISSLKAEDTAVYYCARNPPYYYGTNNAEAMDYWGQGTTVTVSS
VL: DIQMTQSPSSLSASVGDRVTITCSSSQDISNYLNWYQQKPGKAPKLLIYYTSTLHLGIPPRFSGSGYGTDFTLTINNIESEDAAYYFCQQYYNLPWTFGQGTKVEIKR
binds: [1] | [2]

B6: BAP050-hum14 (antibody, human IgG4 S228P, kappa, V domains shown)
VH: EVQLVQSGAEVKKPGATVKISCKVSGFTLTNYGMNWIRQSPSRGLEWLGWINTDTGEPTYADDFKGRFVFSLDTSVSTAYLQICSLKAEDTAVYYCARNPPYYYGTNNAEAMDYWGQGTTVTVSS
VL: EIVLTQSPATLPVTLGQPASISCSSSQDISNYLNWYQQKPGQAPRLLIYYTSTLHLGVPSRFSGSGSGTDFTFTISSLEAEDAATYYCQQYYNLPWTFGQGTKVEIKR
binds: [3] | [4] | [5] | [6] | [7] | [8]

B7: BAP050-hum12-Ser (antibody, human IgG4 S228P, kappa, V domains shown)
VH: QVQLVQSGAEVKKPGASVKVSCKASGFTLTNYGMNWVRQARGQRLEWIGWINTDTGEPTYADDFKGRFVFSLDTSVSTAYLQISSLKAEDTAVYYCARNPPYYYGTNNAEAMDYWGQGTTVTVSS
VL: EIVLTQSPDFQSVTPKEKVTITCSSSQDISNYLNWYQQKPGQAPRLLIYYTSTLHLGVPSRFSGSGSGTDFTLTISSLQPEDFATYYCQQYYNLPWTFGQGTKVEIKR
binds: [1] | [2]

B8: murine anti-LAG-3 monoclonal antibody BAP050 (antibody, V domains shown)
VH: QIQLVQSGPELKKPGETVKISCKASGFTLTNYGMNWVRQTPGKGLKWMGWINTDTGEPTYADDFKGRFAFSLETSASTASLQINNLKNADTATYFCARNPPYYYGTNNAEAMDYWGQGTAVTVSS
VL: DIQMTQTTSSLSASLGDRVTISCSSSQDISNYLNWYQQKPDGTVKVLIYYTSTLHLGVPSRFSGSGSGTDYSLTISNLELEDIATYYCQQYYNLPWTFGGGTKLEIK
binds: [9] | [10] | [1] | [2]

B9: chimeric mAb BAP050-chi (antibody, human IgG4 S228P, kappa, V domains shown)
VH: QIQLVQSGPELKKPGETVKISCKASGFTLTNYGMNWVRQTPGKGLKWMGWINTDTGEPTYADDFKGRFAFSLETSASTASLQINNLKNADTATYFCARNPPYYYGTNNAEAMDYWGQGTTVTVSS
VL: DIQMTQTTSSLSASLGDRVTISCSSSQDISNYLNWYQQKPDGTVKVLIYYTSTLHLGVPSRFSGSGSGTDYSLTISNLELEDIATYYCQQYYNLPWTFGQGTKVEIKR
binds: [1] | [2]

From patent US20150259420A1
